Experimental data as given in the supplement of paper PMC8616043.
Counter-ions that a name gives are not always drawn. The list shows a part of the results. Repeats in this data set agree poorly, so a single value says little.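 Human U-2 OS cells stably expressing a GFP sensor with a nuclear import signal and classical export signal were transfected to produce PR50, a 50-repeat proline–arginine dipeptide from ALS/FTD gene C9ORF72. Nuclear-minus-cytoplasm GFP was scaled from DMSO (low) to PR-only (high), scored against plate test wells; strongly negative scores marked PR-reversing hits.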

Each compound was assayed on U-2 OS NCT-C biosensor cells expressing PR50 (assay: Z-score of normalised NCT-C biosensor translocation index in PR50-expressing cells; higher = more nuclear biosensor (more disrupted nuclear export)). Conditions: 3 µM; 24 h.
`N[C@@H](COP(=O)(O)O)C(=O)O` [O-Phospho-L- serine] was tested, and the Z-score was inactive: 0.239. For `O=C(O)c1cccnc1` [Niacin (Known As Vitamin B3, Nicotinic Acid And Vitamin Pp)], the Z-score was inactive: -0.614. In the case of `CN1CCN(C2=Nc3ccccc3Cc3ccccc32)CC1` [Perlapine], the Z-score is reported as inactive: -0.156. With `CCCCc1oc2ccccc2c1C(=O)c1cc(I)c(OCCN(CC)CC)c(I)c1` [Amiodarone hydrochloride] the Z-score was inactive: -0.0266. `CCCCc1oc2ccccc2c1C(=O)c1cc(I)c(OCCN(CC)CC)c(I)c1` [Amiodarone·HCl] was tested, and the Z-score was inactive: 0.317. For `CC1(C)O[C@@H]2C[C@H]3[C@@H]4C[C@H](F)C5=CC(=O)CC[C@]5(C)[C@H]4[C@@H](O)C[C@]3(C)[C@]2(C(=O)CO)O1` [Flurandrenolide], the Z-score was inactive: 0.301. With `COc1ccc(Br)cc1S(=O)(=O)NC(=O)/C=C/c1ccccc1Cc1ccc2ccccc2c1` the Z-score was inactive: -0.205. `COc1ccc(/C=C/c2cc(O)cc(O[C@@H]3O[C@H](CO)[C@@H](O)[C@H](O)[C@H]3O)c2)cc1O` [Rhapontin] was tested, and the Z-score was inactive: 0.615. With `NNC(=O)c1ccncc1` [Isoniazid] the Z-score was inactive: 1.87. With `CN(C(=O)CCCOc1ccc2[nH]c(=O)ccc2c1)C1CCCCC1` [Cilostamide] the Z-score was inactive: 0.711. For `CCCCCC(O)CCCC(=O)O` (stereo unspecified) [5-hydroxydecanoic acid sodium salt], the Z-score was inactive: -0.394. For `Nc1ncnc2c1ncn2C1CCCC1` [9-cyclopentyl adenine monomethanesulf onate], the Z-score was inactive: -0.145. With `O=C1NC(c2cccc([N+](=O)[O-])c2)=CCN1c1ccccc1O` [Icilin] the Z-score was inactive: -0.917. `CCCN(CC1CC1)c1nc(C)nc(Nc2c(Cl)cc(Cl)cc2Cl)c1Cl` was tested, and the Z-score was inactive: 0.0258. With `C[C@H](CS)C(=O)N1CCC[C@H]1C(=O)O` [Captopril] the Z-score was inactive: -0.038. With `CC1(C)O[C@@H]2C[C@H]3[C@@H]4C[C@H](F)C5=CC(=O)C=C[C@]5(C)[C@H]4[C@@H](O)C[C@]3(C)[C@]2(C(=O)CO)O1` [Flunisolide] the Z-score was inactive: -0.106. `Cc1c(-c2ccc(-c3ccccc3F)cc2)nc2ccc(F)cc2c1C(=O)O` [Brequinar sodium salt hydrate] was tested, and the Z-score was inactive: 0.357. For `NC(=O)c1ccccc1` [Benzamide], the Z-score was inactive: -0.327. With `COc1ccccc1CN[C@H]1CCCN[C@H]1c1ccccc1` the Z-score was inactive: -0.491. With `NC(N)=NC(N)=Nc1ccccc1` [1-Phenylbiguanide] the Z-score was inactive: -0.697. With `NCCc1ccc(O)c(O)c1` [Dopamine·HCl] the Z-score was inactive: -0.368. `NCCc1ccc(O)c(O)c1` [Dopamine hydrochloride] was tested, and the Z-score was inactive: -0.316. With `CC(=O)SCC(=O)c1ccc(NS(=O)(=O)c2ccc(OCCCN(C)C)cc2)nc1` the Z-score was inactive: -0.863. With `C[C@H](Cc1ccc(O)c(O)c1)[C@@H](C)Cc1ccc(O)c(O)c1` the Z-score was inactive: 0.215. For `C[C@H](O)[C@H](O)[C@H]1CNc2nc(N)[nH]c(=O)c2N1` [(6R)-5,6,7,8-Tetrahydro-L-biopterin dihydrochloride], the Z-score was inactive: -1.09. For `C[N+](C)(C)C[C@H](O)CC(=O)[O-]` [Levocarnitine], the Z-score was inactive: 0.61. With `Nc1ncnc2c1ncn2[C@@H]1O[C@@H]2COP(=O)(O)O[C@H]2[C@H]1O` [Adenosine 3',5'- cyclic monophosphate] the Z-score was inactive: 0.847. For `C[C@H]1[C@H]2CC[C@H]3[C@@H]4CC=C5C[C@@H](N(C)C)CC[C@]5(C)[C@H]4CC[C@]23CN1C` [Conessine], the Z-score was inactive: 0.0224. For `CC(C)C(=O)c1c(C(C)C)nn2ccccc12` [Ibudilast], the Z-score was inactive: 0.0283. `C[N+](C)(C)CC(O)CC(=O)[O-]` (racemic) [(±)-Carnitine] was tested, and the Z-score was inactive: 0.307. For `CC(CN(C)C)CN1c2ccccc2CCc2ccccc21` (stereo unspecified) [Trimipramine Maleate salt], the Z-score was inactive: -1.24. For `COC(=O)C(C)(N)Cc1ccc(O)cc1` (racemic) [alpha-Methyl-DL- tyrosine methyl ester HCl], the Z-score was inactive: -0.111. For `COC(=O)[C@H]1[C@H]2C[C@H]3c4[nH]c5ccccc5c4CCN3C[C@H]2CC[C@@H]1O` [Rauwolscine], the Z-score was inactive: -0.517. In the case of `CN1[C@@H]2CC[C@H]1C[C@@H](OC(=O)C(O)c1ccccc1)C2` (stereo partly specified) [Homatropine·HBr], the Z-score is reported as inactive: -0.286. `CN1[C@@H]2CC[C@H]1C[C@@H](OC(=O)C(O)c1ccccc1)C2` (mixture of isomers) [DL-Homatropine hydrobromide] was tested, and the Z-score was inactive: -0.409. For `Cn1nnc2c(C(N)=O)ncn2c1=O` [Temozolomide], the Z-score was inactive: -0.121. In the case of `C=C1C(=O)O[C@H]2[C@H]1CC/C(C)=C/CC[C@@]1(C)O[C@@H]21` [Parthenolide], the Z-score is reported as inactive: 0.285. `O=C(O)COc1ccc(C(=O)c2cccs2)c(Cl)c1Cl` [Tienilic Acid] was tested, and the Z-score was inactive: 0.214. `COc1ccc(CCn2nnnc2C2(c3ccc(C)cc3)CC2)cc1` [Mephetyl tetrazole] was tested, and the Z-score was inactive: 0.471. For `Nc1nc(N)c2nc(-c3ccccc3)c(N)nc2n1` [Triamterene], the Z-score was inactive: -0.125. `CC(C)(C)NC(=O)[C@H]1CC[C@H]2[C@@H]3CC[C@H]4NC(=O)C=C[C@]4(C)[C@H]3CC[C@]12C` [Finasteride] was tested, and the Z-score was inactive: 0.461. With `C=CC[N+]1([C@H]2C[C@H]3[C@@H]4CC[C@H]5C[C@H](O)[C@@H](N6CCOCC6)C[C@]5(C)[C@H]4CC[C@]3(C)[C@H]2OC(C)=O)CCCC1` [Rocuronium Bromide] the Z-score was inactive: 0.446. In the case of `Cc1ccc(C(=O)N(CCCN)[C@@H](c2oc3cc(Cl)ccc3c(=O)c2Cc2ccccc2)C(C)C)cc1`, the Z-score is reported as inactive: 1.35. With `O=c1c(O)c(-c2ccc(O)cc2)oc2cc(O)cc(O)c12` [Kaempferol] the Z-score was inactive: -0.395. With `COc1cc2nc(N3CCN(C(=O)C4COc5ccccc5O4)CC3)nc(N)c2cc1OC` (stereo unspecified) [Doxazosin mesylate] the Z-score was inactive: -0.0874. With `COc1cc2nc(N3CCN(C(=O)C4COc5ccccc5O4)CC3)nc(N)c2cc1OC` (stereo unspecified) [Doxazosin Mesylate] the Z-score was inactive: 0.275. In the case of `N[C@H]1CONC1=O` [L-Cycloserine], the Z-score is reported as inactive: 1.36. With `CCN(CC)CCOCCOC(=O)C1(c2ccccc2)CCCC1` [Carbetapentane citrate] the Z-score was inactive: -0.293. `C[C@@H]1C[C@H]2[C@@H]3CCC4=CC(=O)C=C[C@]4(C)[C@@]3(F)[C@@H](O)C[C@]2(C)[C@H]1C(=O)CO` [Desoximetasone] was tested, and the Z-score was inactive: -0.342. In the case of `COc1ccc(Oc2c(Cl)cnn(C3c4ccccc4-c4ccccc43)c2=O)cc1`, the Z-score is reported as inactive: 0.0717. `O=c1[nH]ccc2c(O)cccc12` [1,5-  Isoquinolinediol] was tested, and the Z-score was inactive: 0.0717. For `Cc1cc(C(C)(C)C)cc(C)c1CC1=NCCN1` [Xylometazoline hydrochloride], the Z-score was inactive: -0.428. With `CCN(CC)C(=O)C1(c2ccccc2)CC1CN` (stereo unspecified) [Milnacipran·HCl] the Z-score was inactive: -0.695. In the case of `O=C(c1cc(O)c(O)c([N+](=O)[O-])c1)c1ccccc1F`, the Z-score is reported as inactive: 1.03. With `O=P(O)(O)C(O)(Cn1ccnc1)P(=O)(O)O` [Zoledronic Acid Monohydrate] the Z-score was inactive: -1.2. In the case of `O=P(O)(O)C(O)(Cn1ccnc1)P(=O)(O)O` [Zoledronic acid monohydrate], the Z-score is reported as inactive: -0.507. For `Nc1nc2c(cnn2CCc2ccccc2)c2nc(-c3ccco3)nn12`, the Z-score was inactive: 0.167. For `NC[C@H]1O[C@H](O[C@H]2[C@H](O)[C@@H](O[C@H]3O[C@H](CO)[C@@H](O)[C@H](N)[C@H]3O)[C@H](N)C[C@@H]2N)[C@H](N)C[C@@H]1O` [Tobramycin], the Z-score was inactive: -0.14. For `Nc1cc2c(ncn2CCOCP(=O)(O)O)c(=O)[nH]1` [PMEG hydrate], the Z-score was inactive: 0.222. With `CC1(C)O[C@@H]2C[C@H]3[C@@H]4C[C@H](F)C5=CC(=O)C=C[C@]5(C)[C@@]4(F)[C@@H](O)C[C@]3(C)[C@]2(C(=O)CO)O1` [Fluocinolone Acetonide] the Z-score was inactive: 0.0611. In the case of `CC(C)[C@H](N)C(=O)OCCOCn1cnc2c(=O)nc(N)[nH]c21` [Valacyclovir·HCl], the Z-score is reported as inactive: 0.687. In the case of `CC(C)(O)[C@@H]1CC[C@](C)([C@H]2[C@@H](O)C[C@@]3(C)[C@@H]4C[C@H](O)[C@H]5C(C)(C)[C@@H](O)CC[C@@]56C[C@@]46CC[C@]23C)O1` [Cycloastragenol], the Z-score is reported as inactive: 0.144. With `CN1CCN2c3ncccc3Cc3ccccc3C2C1` (stereo unspecified) [Mirtazapine] the Z-score was inactive: -0.0541. In the case of `Cn1cc(C(F)(F)F)nc1-c1ccc(OCC(O)CNCCOc2ccc(O)c(C(N)=O)c2)cc1` (stereo unspecified), the Z-score is reported as inactive: -1.62. `C[C@@H]1C/C=C/C=C/C=C/C=C/[C@H](O[C@@H]2O[C@H](C)[C@@H](O)[C@H](N)[C@@H]2O)C[C@@H]2O[C@](O)(C[C@@H](O)C[C@H]3O[C@@H]3/C=C/C(=O)O1)C[C@H](O)[C@H]2C(=O)O` [Natamycin] was tested, and the Z-score was inactive: -0.642. In the case of `C[C@@H]1C/C=C/C=C/C=C/C=C/[C@H](O[C@@H]2O[C@H](C)[C@@H](O)[C@H](N)[C@@H]2O)C[C@@H]2O[C@](O)(C[C@@H](O)C[C@H]3O[C@@H]3/C=C/C(=O)O1)C[C@H](O)[C@H]2C(=O)O` [Pimaricin], the Z-score is reported as inactive: -0.41.
